Earlier results as cited in patent publication US20240000789A1, “THERAPEUTIC COMBINATIONS COMPRISING A CRAF INHIBITOR” (NOVARTIS AG, priority 2020, published 2024).
Like-named read-outs stand apart in the source and are kept apart here. At least one compound was matched to its structure with a doubt left.

System: advanced NRAS-mutant melanoma
Settings: cited from earlier work; for ORR (overall response rate): NEMO phase 3, NRAS-mutant melanoma patients

Structure (SMILES): CN(C)/N=N/c1[nH]cnc1C(N)=O [Dacarbazine]
- ORR (overall response rate): 7%
- ORR (overall response rate) (listed as dacarbazine): 7%
- PFS (NEMO phase 3): 1.5 months
- mOS (NEMO phase 3): 10.1 months
